Where “and” joins values, the source holds several entries; their conditions need not be identical. Equal values may be shown once. Read-outs that look alike come from different tables or passages of the source.
Columns and labels:
hairless rat skin = settings: for Amount of morphine sulfate through 1 cm^2 of hairless rat skin, mean: mean of 3; for Amount of morphine sulfate through 1 cm^2 of hairless rat skin: single samples s-1 to s-3
[1] = both formulations (SDS-L and SDS-S), stated with the pH values
[2] = from SDS-L (closed condition), 0 hr
[3] = from SDS-L (closed condition), 3 hr
[4] = from SDS-L (closed condition), 6 hr
[5] = from SDS-L (open condition), 0 hr
[6] = from SDS-L (open condition), 3 hr
[7] = from SDS-L (open condition), 6 hr
[8] = from SDS-S (closed condition), 0 hr
[9] = from SDS-S (closed condition), 3 hr
[10] = from SDS-S (closed condition), 6 hr

## CN1CC[C@]23c4c5ccc(O)c4O[C@H]2[C@@H](O)C=C[C@H]3[C@H]1C5.O=S(=O)(O)O [morphine sulfate]
Hairless rat skin; both SDS-L and SDS-S
  time after which morphine sulfate is detected in the receptor solution: > 6 h
Hairless rat skin; [2]
  Amount of morphine sulfate through 1 cm^2 of hairless rat skin, mean: 0 ug/cm^2
  Amount of morphine sulfate through 1 cm^2 of hairless rat skin: 0 ug/cm^2
Hairless rat skin; [3]
  Amount of morphine sulfate through 1 cm^2 of hairless rat skin, mean: 0 ug/cm^2
  Amount of morphine sulfate through 1 cm^2 of hairless rat skin: 0 ug/cm^2
Hairless rat skin; [4]
  Amount of morphine sulfate through 1 cm^2 of hairless rat skin, mean: 0 ug/cm^2
  Amount of morphine sulfate through 1 cm^2 of hairless rat skin: 0 ug/cm^2
Hairless rat skin; from SDS-L (closed condition), 22 hr
  Amount of morphine sulfate through 1 cm^2 of hairless rat skin, mean: 12 ug/cm^2
Hairless rat skin; from SDS-L (closed condition), 26 hr
  Amount of morphine sulfate through 1 cm^2 of hairless rat skin, mean: 126 ug/cm^2
Hairless rat skin; from SDS-L (closed condition), 29 hr
  Amount of morphine sulfate through 1 cm^2 of hairless rat skin, mean: 270 ug/cm^2
Hairless rat skin; [5]
  Amount of morphine sulfate through 1 cm^2 of hairless rat skin, mean: 0 ug/cm^2
  Amount of morphine sulfate through 1 cm^2 of hairless rat skin: 0 ug/cm^2
Hairless rat skin; [6]
  Amount of morphine sulfate through 1 cm^2 of hairless rat skin, mean: 0 ug/cm^2
  Amount of morphine sulfate through 1 cm^2 of hairless rat skin: 0 ug/cm^2
Hairless rat skin; [7]
  Amount of morphine sulfate through 1 cm^2 of hairless rat skin, mean: 0 ug/cm^2
  Amount of morphine sulfate through 1 cm^2 of hairless rat skin: 0 ug/cm^2
Hairless rat skin; from SDS-L (open condition), 22 hr
  Amount of morphine sulfate through 1 cm^2 of hairless rat skin, mean: 44 ug/cm^2
Hairless rat skin; from SDS-L (open condition), 26 hr
  Amount of morphine sulfate through 1 cm^2 of hairless rat skin, mean: 155 ug/cm^2
Hairless rat skin; from SDS-L (open condition), 29 hr
  Amount of morphine sulfate through 1 cm^2 of hairless rat skin, mean: 275 ug/cm^2
Hairless rat skin; [8]
  Amount of morphine sulfate through 1 cm^2 of hairless rat skin, mean: 0 ug/cm^2
  Amount of morphine sulfate through 1 cm^2 of hairless rat skin: 0 ug/cm^2
Hairless rat skin; [9]
  Amount of morphine sulfate through 1 cm^2 of hairless rat skin, mean: 0 ug/cm^2
  Amount of morphine sulfate through 1 cm^2 of hairless rat skin: 0 ug/cm^2
Hairless rat skin; [10]
  Amount of morphine sulfate through 1 cm^2 of hairless rat skin, mean: 0 ug/cm^2
  Amount of morphine sulfate through 1 cm^2 of hairless rat skin: 0 ug/cm^2
Hairless rat skin; from SDS-S (closed condition), 22 hr
  Amount of morphine sulfate through 1 cm^2 of hairless rat skin, mean: 802 ug/cm^2
Hairless rat skin; from SDS-S (closed condition), 22 hr, sulfate
  Amount of morphine sulfate through 1 cm^2 of hairless rat skin: 717 ug/cm^2 and 599 ug/cm^2 and 1091 ug/cm^2
Hairless rat skin; from SDS-S (closed condition), 26 hr
  Amount of morphine sulfate through 1 cm^2 of hairless rat skin, mean: 1079 ug/cm^2
Hairless rat skin; from SDS-S (closed condition), 26 hr, sulfate
  Amount of morphine sulfate through 1 cm^2 of hairless rat skin: 1040 ug/cm^2 and 940 ug/cm^2 and 1256 ug/cm^2
Hairless rat skin; from SDS-S (closed condition), 29 hr
  Amount of morphine sulfate through 1 cm^2 of hairless rat skin, mean: 1248 ug/cm^2
Hairless rat skin; from SDS-S (closed condition), 29 hr, sulfate
  Amount of morphine sulfate through 1 cm^2 of hairless rat skin: 1256 ug/cm^2 and 1112 ug/cm^2 and 1375 ug/cm^2
[1]
  toxicity to the skin: non-toxic to the skin

Source: patent US6444234B1, “Compositions for rapid and non-irritating transdermal delivery of pharmaceutically active agents and methods for formulating such compositions and delivery thereof” (priority 1998, dated 2002)
